These are yes or no findings as the source states them, for the method shown. For some of these results: In cells and extracts the contact can be indirect. Some results given as binding are weak or reduced against the parent protein; the word gives no strength. For some of these results: Where a sequence is shown, tags or fusion partners need not be part of it.
Key:
[1] = biological target: T1, myc-tagged SETD3 (SET domain-containing 3) (UniProt Q86TU7); assay: co-IP; SETD3 and USP27 plasmids transfected alone or together into 293T cells; immunoprecipitation in both directions and western blot; lysis buffer 50 mM Tris-HCl pH 8.0, 150 mM NaCl, 1% NP-40, 2 mM EDTA, 0.1% SDS; overnight at 4 °C with protein A-Sepharose
T1 sequence: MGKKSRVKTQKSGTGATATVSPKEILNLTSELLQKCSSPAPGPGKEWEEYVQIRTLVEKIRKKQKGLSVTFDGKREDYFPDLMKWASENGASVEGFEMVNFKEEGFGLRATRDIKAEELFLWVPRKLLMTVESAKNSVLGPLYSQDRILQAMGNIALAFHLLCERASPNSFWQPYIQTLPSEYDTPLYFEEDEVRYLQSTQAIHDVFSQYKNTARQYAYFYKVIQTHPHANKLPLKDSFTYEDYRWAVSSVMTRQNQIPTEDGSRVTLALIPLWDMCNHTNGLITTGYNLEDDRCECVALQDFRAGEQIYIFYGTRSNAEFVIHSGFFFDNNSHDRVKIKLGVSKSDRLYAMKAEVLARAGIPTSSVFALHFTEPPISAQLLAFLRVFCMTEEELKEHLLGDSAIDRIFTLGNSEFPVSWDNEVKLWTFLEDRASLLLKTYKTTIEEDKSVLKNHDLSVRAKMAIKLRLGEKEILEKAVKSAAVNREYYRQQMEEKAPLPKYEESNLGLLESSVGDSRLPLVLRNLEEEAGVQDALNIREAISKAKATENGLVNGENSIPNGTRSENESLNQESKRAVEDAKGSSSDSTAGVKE

[2] = biological target: T1, myc-tagged SETD3 (SET domain-containing 3); assay: co-IP; DUB library screen: each Flag-tagged DUB transfected with myc-tagged SETD3 into HEK293T cells, 48 h later co-immunoprecipitation and western blotting
[3] = biological target: T2, Flag-tagged USP27 (ubiquitin-specific peptidase 27) (UniProt A6NNY8); assay: co-IP; SETD3 and USP27 plasmids transfected alone or together into 293T cells; immunoprecipitation in both directions and western blot; lysis buffer 50 mM Tris-HCl pH 8.0, 150 mM NaCl, 1% NP-40, 2 mM EDTA, 0.1% SDS; overnight at 4 °C with protein A-Sepharose
T2 sequence: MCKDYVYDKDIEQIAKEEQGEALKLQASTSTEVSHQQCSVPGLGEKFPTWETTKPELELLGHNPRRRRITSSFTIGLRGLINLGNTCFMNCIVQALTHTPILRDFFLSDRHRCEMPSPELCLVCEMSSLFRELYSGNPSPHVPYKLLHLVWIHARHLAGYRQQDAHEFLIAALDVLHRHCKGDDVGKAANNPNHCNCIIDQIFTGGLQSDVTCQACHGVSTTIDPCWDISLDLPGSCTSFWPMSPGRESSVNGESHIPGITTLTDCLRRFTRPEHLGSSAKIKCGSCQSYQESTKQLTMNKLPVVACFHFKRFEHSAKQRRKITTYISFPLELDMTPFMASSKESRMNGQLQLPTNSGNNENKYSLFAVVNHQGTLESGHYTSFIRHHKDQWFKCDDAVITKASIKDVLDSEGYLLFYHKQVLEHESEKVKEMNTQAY

[4] = biological target: T3, USP27, endogenous in Hep3B cells (human (endogenous in Hep3B)) (UniProt A6NNY8); assay: co-IP; endogenous proteins in Hep3B cells; immunoprecipitation with anti-USP27 or normal rabbit IgG, blot for SETD3
T3 sequence: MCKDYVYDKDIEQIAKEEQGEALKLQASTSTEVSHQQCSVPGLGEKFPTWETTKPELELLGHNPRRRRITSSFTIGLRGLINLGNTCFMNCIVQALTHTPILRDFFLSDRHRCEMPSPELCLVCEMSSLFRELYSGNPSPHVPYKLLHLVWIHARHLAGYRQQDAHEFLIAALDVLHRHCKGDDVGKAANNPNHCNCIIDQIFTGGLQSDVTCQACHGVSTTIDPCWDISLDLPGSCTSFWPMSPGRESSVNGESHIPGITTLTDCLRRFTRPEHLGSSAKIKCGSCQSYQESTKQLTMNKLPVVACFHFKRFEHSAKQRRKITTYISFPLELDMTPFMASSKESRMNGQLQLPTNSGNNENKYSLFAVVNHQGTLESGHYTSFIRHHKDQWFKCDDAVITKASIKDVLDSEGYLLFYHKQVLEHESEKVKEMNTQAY

[5] = biological target: T4, GST-USP27 fusion protein (UniProt A6NNY8); assay: pull-down; 5 μg GST-USP27 mixed with 5 μg purified Flag-SETD3, incubated with GST binding resins at 4 °C for 8 h, washed three times, western blot; both purified
T4 sequence: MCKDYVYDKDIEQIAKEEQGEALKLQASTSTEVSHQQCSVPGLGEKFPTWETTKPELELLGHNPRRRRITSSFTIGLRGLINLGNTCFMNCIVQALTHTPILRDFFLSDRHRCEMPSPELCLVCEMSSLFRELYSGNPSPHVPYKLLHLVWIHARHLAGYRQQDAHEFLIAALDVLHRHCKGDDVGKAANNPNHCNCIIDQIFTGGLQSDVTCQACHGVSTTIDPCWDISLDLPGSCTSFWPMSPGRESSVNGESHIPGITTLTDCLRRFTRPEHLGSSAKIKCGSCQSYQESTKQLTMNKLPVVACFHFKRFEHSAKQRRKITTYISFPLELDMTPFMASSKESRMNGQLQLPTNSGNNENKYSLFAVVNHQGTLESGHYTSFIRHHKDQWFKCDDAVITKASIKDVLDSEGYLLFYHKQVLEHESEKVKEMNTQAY

[6] = biological target: T5, Flag-SETD3 fusion protein (UniProt Q86TU7); assay: proximity ligation; in situ PLA (Duolink In Situ Red) in HEK293T cells transfected with myc-USP27 and Flag-SETD3; anti-Flag rabbit and anti-myc mouse antibodies; control: myc-USP27 with empty Flag vector
T5 sequence: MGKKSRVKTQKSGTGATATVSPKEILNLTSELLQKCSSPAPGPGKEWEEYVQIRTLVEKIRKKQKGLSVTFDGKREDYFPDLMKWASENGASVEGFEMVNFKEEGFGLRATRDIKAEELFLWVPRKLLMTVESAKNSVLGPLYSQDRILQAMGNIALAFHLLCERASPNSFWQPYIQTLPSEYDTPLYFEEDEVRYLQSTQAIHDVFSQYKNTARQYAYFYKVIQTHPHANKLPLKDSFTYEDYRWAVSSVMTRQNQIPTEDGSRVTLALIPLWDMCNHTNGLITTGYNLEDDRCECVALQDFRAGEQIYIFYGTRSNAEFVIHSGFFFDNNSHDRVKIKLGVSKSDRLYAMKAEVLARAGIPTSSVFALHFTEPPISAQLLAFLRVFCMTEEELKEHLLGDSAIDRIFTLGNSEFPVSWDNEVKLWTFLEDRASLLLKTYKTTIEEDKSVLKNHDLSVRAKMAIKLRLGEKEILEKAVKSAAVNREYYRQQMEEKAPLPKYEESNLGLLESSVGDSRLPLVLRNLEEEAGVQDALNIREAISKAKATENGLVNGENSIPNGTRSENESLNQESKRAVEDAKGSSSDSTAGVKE

[7] = biological target: T1, myc-tagged SETD3 (SET domain-containing 3); assay: co-IP; truncated mutants of USP27 tested with SETD3 (Fig. 1I) and of SETD3 with USP27 (Fig. 1J), 'as indicated'; method, cells and tags not named for these panels

B1: Flag-tagged USP27 (ubiquitin-specific peptidase 27) (enzyme, UniProt A6NNY8 1-438)
chain: MCKDYVYDKDIEQIAKEEQGEALKLQASTSTEVSHQQCSVPGLGEKFPTWETTKPELELLGHNPRRRRITSSFTIGLRGLINLGNTCFMNCIVQALTHTPILRDFFLSDRHRCEMPSPELCLVCEMSSLFRELYSGNPSPHVPYKLLHLVWIHARHLAGYRQQDAHEFLIAALDVLHRHCKGDDVGKAANNPNHCNCIIDQIFTGGLQSDVTCQACHGVSTTIDPCWDISLDLPGSCTSFWPMSPGRESSVNGESHIPGITTLTDCLRRFTRPEHLGSSAKIKCGSCQSYQESTKQLTMNKLPVVACFHFKRFEHSAKQRRKITTYISFPLELDMTPFMASSKESRMNGQLQLPTNSGNNENKYSLFAVVNHQGTLESGHYTSFIRHHKDQWFKCDDAVITKASIKDVLDSEGYLLFYHKQVLEHESEKVKEMNTQAY
- binding [1]: binds
- binding [2]: binds

B2: myc-tagged SETD3 (SET domain-containing 3) (enzyme, UniProt Q86TU7 1-594)
chain: MGKKSRVKTQKSGTGATATVSPKEILNLTSELLQKCSSPAPGPGKEWEEYVQIRTLVEKIRKKQKGLSVTFDGKREDYFPDLMKWASENGASVEGFEMVNFKEEGFGLRATRDIKAEELFLWVPRKLLMTVESAKNSVLGPLYSQDRILQAMGNIALAFHLLCERASPNSFWQPYIQTLPSEYDTPLYFEEDEVRYLQSTQAIHDVFSQYKNTARQYAYFYKVIQTHPHANKLPLKDSFTYEDYRWAVSSVMTRQNQIPTEDGSRVTLALIPLWDMCNHTNGLITTGYNLEDDRCECVALQDFRAGEQIYIFYGTRSNAEFVIHSGFFFDNNSHDRVKIKLGVSKSDRLYAMKAEVLARAGIPTSSVFALHFTEPPISAQLLAFLRVFCMTEEELKEHLLGDSAIDRIFTLGNSEFPVSWDNEVKLWTFLEDRASLLLKTYKTTIEEDKSVLKNHDLSVRAKMAIKLRLGEKEILEKAVKSAAVNREYYRQQMEEKAPLPKYEESNLGLLESSVGDSRLPLVLRNLEEEAGVQDALNIREAISKAKATENGLVNGENSIPNGTRSENESLNQESKRAVEDAKGSSSDSTAGVKE
- binding [3]: binds

B3: SETD3, endogenous in Hep3B cells (enzyme, UniProt Q86TU7 1-594)
chain: MGKKSRVKTQKSGTGATATVSPKEILNLTSELLQKCSSPAPGPGKEWEEYVQIRTLVEKIRKKQKGLSVTFDGKREDYFPDLMKWASENGASVEGFEMVNFKEEGFGLRATRDIKAEELFLWVPRKLLMTVESAKNSVLGPLYSQDRILQAMGNIALAFHLLCERASPNSFWQPYIQTLPSEYDTPLYFEEDEVRYLQSTQAIHDVFSQYKNTARQYAYFYKVIQTHPHANKLPLKDSFTYEDYRWAVSSVMTRQNQIPTEDGSRVTLALIPLWDMCNHTNGLITTGYNLEDDRCECVALQDFRAGEQIYIFYGTRSNAEFVIHSGFFFDNNSHDRVKIKLGVSKSDRLYAMKAEVLARAGIPTSSVFALHFTEPPISAQLLAFLRVFCMTEEELKEHLLGDSAIDRIFTLGNSEFPVSWDNEVKLWTFLEDRASLLLKTYKTTIEEDKSVLKNHDLSVRAKMAIKLRLGEKEILEKAVKSAAVNREYYRQQMEEKAPLPKYEESNLGLLESSVGDSRLPLVLRNLEEEAGVQDALNIREAISKAKATENGLVNGENSIPNGTRSENESLNQESKRAVEDAKGSSSDSTAGVKE
- binding [4]: binds

B4: Flag-SETD3 fusion protein (enzyme, UniProt Q86TU7 1-594)
chain: MGKKSRVKTQKSGTGATATVSPKEILNLTSELLQKCSSPAPGPGKEWEEYVQIRTLVEKIRKKQKGLSVTFDGKREDYFPDLMKWASENGASVEGFEMVNFKEEGFGLRATRDIKAEELFLWVPRKLLMTVESAKNSVLGPLYSQDRILQAMGNIALAFHLLCERASPNSFWQPYIQTLPSEYDTPLYFEEDEVRYLQSTQAIHDVFSQYKNTARQYAYFYKVIQTHPHANKLPLKDSFTYEDYRWAVSSVMTRQNQIPTEDGSRVTLALIPLWDMCNHTNGLITTGYNLEDDRCECVALQDFRAGEQIYIFYGTRSNAEFVIHSGFFFDNNSHDRVKIKLGVSKSDRLYAMKAEVLARAGIPTSSVFALHFTEPPISAQLLAFLRVFCMTEEELKEHLLGDSAIDRIFTLGNSEFPVSWDNEVKLWTFLEDRASLLLKTYKTTIEEDKSVLKNHDLSVRAKMAIKLRLGEKEILEKAVKSAAVNREYYRQQMEEKAPLPKYEESNLGLLESSVGDSRLPLVLRNLEEEAGVQDALNIREAISKAKATENGLVNGENSIPNGTRSENESLNQESKRAVEDAKGSSSDSTAGVKE
- binding [5]: binds

B5: myc-USP27 (enzyme, UniProt A6NNY8 1-438)
chain: MCKDYVYDKDIEQIAKEEQGEALKLQASTSTEVSHQQCSVPGLGEKFPTWETTKPELELLGHNPRRRRITSSFTIGLRGLINLGNTCFMNCIVQALTHTPILRDFFLSDRHRCEMPSPELCLVCEMSSLFRELYSGNPSPHVPYKLLHLVWIHARHLAGYRQQDAHEFLIAALDVLHRHCKGDDVGKAANNPNHCNCIIDQIFTGGLQSDVTCQACHGVSTTIDPCWDISLDLPGSCTSFWPMSPGRESSVNGESHIPGITTLTDCLRRFTRPEHLGSSAKIKCGSCQSYQESTKQLTMNKLPVVACFHFKRFEHSAKQRRKITTYISFPLELDMTPFMASSKESRMNGQLQLPTNSGNNENKYSLFAVVNHQGTLESGHYTSFIRHHKDQWFKCDDAVITKASIKDVLDSEGYLLFYHKQVLEHESEKVKEMNTQAY
- binding [6]: binds

B6: USP27 C-terminal 78-422 fragment (domain or fragment, UniProt A6NNY8 78-422)
chain: RGLINLGNTCFMNCIVQALTHTPILRDFFLSDRHRCEMPSPELCLVCEMSSLFRELYSGNPSPHVPYKLLHLVWIHARHLAGYRQQDAHEFLIAALDVLHRHCKGDDVGKAANNPNHCNCIIDQIFTGGLQSDVTCQACHGVSTTIDPCWDISLDLPGSCTSFWPMSPGRESSVNGESHIPGITTLTDCLRRFTRPEHLGSSAKIKCGSCQSYQESTKQLTMNKLPVVACFHFKRFEHSAKQRRKITTYISFPLELDMTPFMASSKESRMNGQLQLPTNSGNNENKYSLFAVVNHQGTLESGHYTSFIRHHKDQWFKCDDAVITKASIKDVLDSEGYLLFYHKQV
- binding [7]: binds
